From patent US11400089B2, “Multikinase inhibitors and uses in reproductive and digestive tract fibrosis” (AIVIVA BIOPHARMA, INC., priority 2017, dated 2022)
For at least one compound, name, drawing or mass did not settle the structure.

What was measured:
[1] = tested on: full-thickness dermal wounds; assay: full-thickness dermal wounds in rabbit ear, histopathology (Example 5); type: in vivo, New Zealand White rabbits; conditions: 1% intradermal
Procedure: Test compounds were examined in full-thickness dermal wounds in rabbits. Seven male New Zealand White rabbits, ranging in body weight from 3.03 to 3.40 kg were used in this study. Four wounds were placed on the ventral surface of both ears using an 8 mm skin punch biopsy. Axitinib (1.0%), nintedanib (1.0%), lenvatinib (1.0%), sorafenib (1.0%) and sunitinib (1.0%) were administered by intradermal or intralesional injection on days 15 and 29 following surgery. Animals were euthanized on Day 42 and trauma sites were harvested and divided in half. One half was preserved in formalin for histological examination and the other half frozen for TGF beta analysis. Tissue H&E staining was evaluated semi-quantitatively for inflammation and neovascularization. Tissue fibrosis and collagen organization were evaluated by Mason's trichrome staining. Scores for four intradermal sites receiving test articles were averaged for each rabbit. Most scar tissues were composed of neovascularization, fibroblast hyperplasia, collagen disorganization and re-epithelialization.

TGF beta mRNA expression = TGF beta mRNA expression in rabbit dermal wound model (Example 5); type: in vivo, New Zealand White rabbits; conditions: 1% intradermal days 15 and 29; Day 42; FIG. 10
Procedure: Test compounds were examined in full-thickness dermal wounds in rabbits. Seven male New Zealand White rabbits, ranging in body weight from 3.03 to 3.40 kg were used in this study. Four wounds were placed on the ventral surface of both ears using an 8 mm skin punch biopsy. Axitinib (1.0%), nintedanib (1.0%), lenvatinib (1.0%), sorafenib (1.0%) and sunitinib (1.0%) were administered by intradermal or intralesional injection on days 15 and 29 following surgery. Animals were euthanized on Day 42 and trauma sites were harvested and divided in half. One half was preserved in formalin for histological examination and the other half frozen for TGF beta analysis.
TGF beta mRNA expression in treated trauma samples was compared to expression in untreated samples. In general, TGF beta expression in treated samples was lower relative to untreated trauma samples.

[2] = tested on: testosterone and phenylephrine induced benign prostate hyperplasia; assay: testosterone and phenylephrine induced benign prostate hyperplasia in rats (Example 1); type: in vivo, Male Wistar rats
Procedure: Wistar and Sprague-Dawley strains of rats are susceptible to developing benign prostatic hyperplasia after treatment with exogenous testosterone and can serve as a model of hyperplasia induced by endogenous hormones, i.e., BPH in males and uterine fibroids (UF) in females. A study was conducted to determine the effects of test compounds and vehicle on testosterone and phenylephrine induced benign prostate hyperplasia in rats. Male Wistar rats were induced with testosterone (2 mg/kg) plus phenylephrine (5 mg/kg) administered daily by subcutaneous injection on days 1 through 28. Vehicle or the multikinase test compounds, axitinib (1%), sorafenib (1%), pirfenidone (2.5%) and riociguat (1%), were administered by intra-prostate injection (0.2 mL) on days 15 and 29. Animals were euthanized on day 42. Body weights were determined. Prostate glands were harvested and weighed.
Prostate weight/100 g body weight was determined for each treatment group (FIG. 1). […] Rather, only multikinase inhibitors with a certain inhibitory spectrum would work.
At necropsy, the dorsolateral and ventral lobes of the prostate were separated and cut into halves. The left halves were fixed in 10% neutral buffered formalin, sectioned, and stained with Hematoxylin and Eosin (H&E). […]

[3] = tested on: suture induced ocular fibrosis; assay: suture induced ocular fibrosis model in rabbits (Example 4); type: in vivo
Procedure: A study was conducted to determine the potential beneficial effects of topical administration of test compounds and vehicle in a suture induced ocular fibrosis model in rabbits. Sutures were placed intrastromally, under a microscope, in the cornea of rabbits. In each eye, one 9.0 silk suture was placed, in a vertical position, temporal to the center of the cornea and a second suture was placed nasal to the corneal center. Each suture had two stromal incursions approximately 2 mm from the limbus. Test compounds having a certain spectrum of multikinase inhibition activities or vehicle were topically instilled (35 μL/eye) in the eyes three times daily for 10 days following the day of surgery. The treatment groups include vehicle, axitinib (0.3%), nintedanib (0.3%), pirfenidone (1%), riociguat (0.3%), sorafenib (0.3%) and lenvatinib (0.3%). Six left eyes were used per treatment group.
During the in-life phase, gross ocular observations of very slight to moderate conjunctival congestion and swelling were similar among groups, including the vehicle control. The animals were sacrificed on Day 11 and eyes enucleated and dissected for histopathological evaluation.

[4] = tested on: TGF beta 1 protein levels; assay: TGF beta 1 protein level (ELISA) in pig linear incision wound model (Example 6); type: in vivo, Gottingen minipigs; conditions: 16 mg per wound site intradermal; Days 4, 7 and 9; FIG. 11
Procedure: Full-thickness linear incision wounds were created in Gottingen minipigs on Day 1. 10 wounds approximately 3 cm in length and spaced at least 5 cm apart were created on the dorsal surface of the animals, perpendicular to the spine. Test agents included nintedanib (2%), lenvatinib (2%), sorafenib (1%), axitinib (2%) and vehicle control. Test agents were administered by intradermal injection immediately after wound creation. The dose of nintedanib, lenvatinib, sorafenib, or axitinib was 16 mg per wound site. Three minipigs were dosed in a similar manner. One minipig was sacrificed on Day 4, one on Day 7, and one on Day 9.
At the time of sacrifice, two dermal punch biopsies (4 mm) from each side of the wound sites were collected. Two biopsies were flash frozen in liquid nitrogen and stored at −80° C. prior to processing by protein extraction and ELISA (enzyme-linked immunosorbent assay) analysis. TGF beta protein levels were measured on Days 4, 7 and 9.

[5] = tested on: LL37-induced inflammation; assay: intradermal LL37 injection-induced inflammation model in mice, histopathology (Example 7); type: in vivo; conditions: single intradermal injection 1.6 mg, FIG. 13
Procedure: In our study, mice were injected subcutaneously with 40 μL of LL-37 (3.3 mg/mL) to induce inflammatory reactions. Immediately following the LL-37 injection, axitinib, nintedanib, and lenvatinib were individually administered as a single intradermal injection (1.6 mg). LL-37 injection was repeated every 12 hours for a total of 4 injections. Endotoxin-free water and dexamethasone (3 mg/kg by intraperitoneal injection, twice), respectively, were used as negative and positive control groups.
At 48 hours after the initial LL-37 injection, the dorsal skin was photographed, and the severity of skin lesions were scored for redness and measured for areas of involvement.
The tissue samples were analyzed for inflammation characteristics. Histopathology endpoints included inflammation, and CD4+ and CD8+ T-lymphocyte immunostaining. For inflammation scores, tissues were examined histologically and scored for inflammatory cell infiltrate.

Structure (SMILES) | fibrosis compared with control wound sites [1] | angiogenesis and fibrosis at treated trauma sites (histopathology summary) ([1]; rabbit ear wound) | neovascularization compared with untreated wounds ([1]; rabbit ear wound) | scar formation overall compared with control sites ([1]; rabbit ear wound) | mean folds of TGF beta mRNA expression vs untreated trauma samples (TGF beta mRNA expression) | mean prostate weight (prostate weight/100 g body weight) ([2]; TE+PE induced rats, 1% test article, intra-prostate 0.2 mL days 15 and 29, day 42, compared to vehicle-treated group 1, FIG. 1) | mean dorsolateral prostate hyperplasia scores compared to vehicle treatment ([2]; induced rats, intra-prostate days 15 and 29, axitinib, sorafenib, riociguat 1%, pirfenidone 2.5%, FIG. 3) | areas of neovascularization on the corneal surface ([3]; 0.3% topical 35 μL/eye three times daily for 10 days, FIG. 8) | fibroplasia and/or collagen density (histological staining) ([3]; 0.3% topical three times daily for 10 days, Day 11, FIG. 9) | alpha SMA staining (immunohistochemical analysis) ([3]; 0.3% topical three times daily for 10 days, relative to vehicle, FIG. 9) | TGF beta 1 protein levels in wound [4] | inflammation scores (inflammatory cell infiltrate) [5]
CCN(CC)CCNC(=O)c1c(C)[nH]c(/C=C2\C(=O)Nc3ccc(F)cc32)c1C [sunitinib] | increased fibrosis compared to untreated control sites | do not show any reduction in angiogenesis and fibrosis | slightly increased neovascularization | does not appear to have reduced scar formation | do not show mean TGF beta expression levels significantly different from the untreated trauma samples | – | – | – | – | – | – | –
CNC(=O)c1ccccc1Sc1ccc2c(/C=C/c3ccccn3)n[nH]c2c1 [axitinib] | – | decreased angiogenesis and fibrosis | less neovascularization than untreated wounds | – | lower than the expression level in untreated trauma samples | resulted in a reduction in the mean prostate weight | demonstrated a decrease in hyperplasia scores | efficacious in reducing the areas of neovascularization | significantly reduced fibroplasia and/or collagen density | significantly reduced alpha SMA staining | time-dependent inhibition of TGF beta 1 protein levels | prominent reductions in the scores of inflammation
